Sequences of proteins named here, by UniProt entry; tags and fusion partners are left off.
UniProt P06173: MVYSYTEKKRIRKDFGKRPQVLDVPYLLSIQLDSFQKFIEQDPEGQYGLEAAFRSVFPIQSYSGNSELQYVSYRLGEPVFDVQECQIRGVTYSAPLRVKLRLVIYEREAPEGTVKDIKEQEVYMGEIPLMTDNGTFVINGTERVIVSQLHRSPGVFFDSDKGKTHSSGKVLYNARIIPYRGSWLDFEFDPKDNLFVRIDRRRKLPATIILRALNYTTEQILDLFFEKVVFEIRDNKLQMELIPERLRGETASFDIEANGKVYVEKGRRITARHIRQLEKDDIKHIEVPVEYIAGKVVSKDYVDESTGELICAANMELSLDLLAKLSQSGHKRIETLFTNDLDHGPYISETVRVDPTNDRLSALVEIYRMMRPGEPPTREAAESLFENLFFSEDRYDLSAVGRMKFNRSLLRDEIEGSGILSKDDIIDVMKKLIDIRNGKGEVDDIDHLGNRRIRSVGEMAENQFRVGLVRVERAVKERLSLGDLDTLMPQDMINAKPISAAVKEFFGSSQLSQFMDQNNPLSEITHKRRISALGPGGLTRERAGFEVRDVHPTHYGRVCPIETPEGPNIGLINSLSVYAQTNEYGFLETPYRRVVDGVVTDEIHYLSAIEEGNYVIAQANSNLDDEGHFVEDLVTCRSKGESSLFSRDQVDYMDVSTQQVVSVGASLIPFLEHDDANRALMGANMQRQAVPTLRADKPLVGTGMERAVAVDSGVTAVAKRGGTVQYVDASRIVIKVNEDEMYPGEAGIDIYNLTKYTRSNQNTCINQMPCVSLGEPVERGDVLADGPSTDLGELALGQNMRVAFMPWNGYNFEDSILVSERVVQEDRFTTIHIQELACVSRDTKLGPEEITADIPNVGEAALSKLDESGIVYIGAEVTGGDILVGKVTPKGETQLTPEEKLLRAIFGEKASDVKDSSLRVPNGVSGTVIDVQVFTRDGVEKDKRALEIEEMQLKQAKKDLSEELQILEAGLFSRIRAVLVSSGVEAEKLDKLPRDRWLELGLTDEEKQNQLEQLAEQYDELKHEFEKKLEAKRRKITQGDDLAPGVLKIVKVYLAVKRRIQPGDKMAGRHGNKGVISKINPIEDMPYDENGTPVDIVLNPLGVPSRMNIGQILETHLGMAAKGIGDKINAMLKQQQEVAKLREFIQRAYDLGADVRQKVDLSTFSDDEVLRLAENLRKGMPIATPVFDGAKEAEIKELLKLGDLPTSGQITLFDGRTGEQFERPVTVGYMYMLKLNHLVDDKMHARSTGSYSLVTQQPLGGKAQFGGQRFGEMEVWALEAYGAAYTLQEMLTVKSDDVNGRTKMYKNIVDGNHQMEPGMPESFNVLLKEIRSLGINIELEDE
UniProt P0A2R4: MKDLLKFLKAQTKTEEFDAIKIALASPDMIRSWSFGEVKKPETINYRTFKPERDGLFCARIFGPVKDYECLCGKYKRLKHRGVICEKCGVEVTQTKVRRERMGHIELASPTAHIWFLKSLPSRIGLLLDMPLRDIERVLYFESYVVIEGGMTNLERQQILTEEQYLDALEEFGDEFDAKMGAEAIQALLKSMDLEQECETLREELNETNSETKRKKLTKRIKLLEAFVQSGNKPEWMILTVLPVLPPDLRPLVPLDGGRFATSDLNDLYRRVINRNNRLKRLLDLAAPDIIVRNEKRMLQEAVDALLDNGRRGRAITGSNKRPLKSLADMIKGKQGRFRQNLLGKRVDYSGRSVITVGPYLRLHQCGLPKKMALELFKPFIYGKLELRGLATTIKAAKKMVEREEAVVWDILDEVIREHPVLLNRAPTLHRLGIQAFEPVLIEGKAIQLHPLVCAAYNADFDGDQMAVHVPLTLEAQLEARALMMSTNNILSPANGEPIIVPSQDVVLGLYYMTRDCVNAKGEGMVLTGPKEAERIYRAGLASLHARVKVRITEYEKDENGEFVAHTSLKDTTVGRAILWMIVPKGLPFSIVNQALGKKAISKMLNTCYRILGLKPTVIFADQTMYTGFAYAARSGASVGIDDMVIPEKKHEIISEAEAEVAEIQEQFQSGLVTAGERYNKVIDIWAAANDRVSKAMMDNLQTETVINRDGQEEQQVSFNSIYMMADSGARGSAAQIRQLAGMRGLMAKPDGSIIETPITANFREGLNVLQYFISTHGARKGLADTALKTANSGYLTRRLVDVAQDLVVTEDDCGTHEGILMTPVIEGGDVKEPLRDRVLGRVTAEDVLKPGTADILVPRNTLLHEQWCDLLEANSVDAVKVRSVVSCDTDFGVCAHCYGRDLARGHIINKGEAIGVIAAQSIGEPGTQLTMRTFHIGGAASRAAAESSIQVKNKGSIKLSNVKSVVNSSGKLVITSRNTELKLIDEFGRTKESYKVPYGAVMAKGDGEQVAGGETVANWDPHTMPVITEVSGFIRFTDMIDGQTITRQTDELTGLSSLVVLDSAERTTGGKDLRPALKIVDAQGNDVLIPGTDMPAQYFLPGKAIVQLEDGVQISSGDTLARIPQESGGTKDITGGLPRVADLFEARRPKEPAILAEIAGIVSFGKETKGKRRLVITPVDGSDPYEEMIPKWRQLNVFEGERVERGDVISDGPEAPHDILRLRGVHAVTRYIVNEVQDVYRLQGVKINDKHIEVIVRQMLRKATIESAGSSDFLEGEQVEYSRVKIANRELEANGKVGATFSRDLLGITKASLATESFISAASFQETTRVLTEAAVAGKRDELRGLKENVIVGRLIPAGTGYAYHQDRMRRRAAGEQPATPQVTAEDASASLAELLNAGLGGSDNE
UniProt Q7CQ01: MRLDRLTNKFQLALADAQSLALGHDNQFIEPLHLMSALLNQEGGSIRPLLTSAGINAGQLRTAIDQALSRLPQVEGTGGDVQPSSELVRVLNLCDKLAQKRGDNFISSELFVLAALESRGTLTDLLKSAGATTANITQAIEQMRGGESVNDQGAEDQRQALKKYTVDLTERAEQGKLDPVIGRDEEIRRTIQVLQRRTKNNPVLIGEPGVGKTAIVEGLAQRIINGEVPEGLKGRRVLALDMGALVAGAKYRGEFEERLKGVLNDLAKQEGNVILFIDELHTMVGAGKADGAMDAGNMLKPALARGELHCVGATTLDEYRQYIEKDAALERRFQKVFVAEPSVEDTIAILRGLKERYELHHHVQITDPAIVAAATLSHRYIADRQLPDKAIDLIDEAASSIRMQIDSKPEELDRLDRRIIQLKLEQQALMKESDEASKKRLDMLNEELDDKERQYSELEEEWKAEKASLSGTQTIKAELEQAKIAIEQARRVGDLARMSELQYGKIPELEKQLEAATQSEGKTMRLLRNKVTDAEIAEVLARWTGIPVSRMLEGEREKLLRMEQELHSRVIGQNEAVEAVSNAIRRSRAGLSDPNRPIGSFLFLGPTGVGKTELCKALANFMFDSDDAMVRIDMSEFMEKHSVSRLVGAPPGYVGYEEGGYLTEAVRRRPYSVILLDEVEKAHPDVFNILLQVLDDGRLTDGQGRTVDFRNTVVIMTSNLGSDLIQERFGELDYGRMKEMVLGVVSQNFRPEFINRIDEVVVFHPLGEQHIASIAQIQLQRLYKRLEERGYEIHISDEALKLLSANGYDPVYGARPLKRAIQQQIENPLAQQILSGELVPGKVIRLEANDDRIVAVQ
UniProt P0A7Z7: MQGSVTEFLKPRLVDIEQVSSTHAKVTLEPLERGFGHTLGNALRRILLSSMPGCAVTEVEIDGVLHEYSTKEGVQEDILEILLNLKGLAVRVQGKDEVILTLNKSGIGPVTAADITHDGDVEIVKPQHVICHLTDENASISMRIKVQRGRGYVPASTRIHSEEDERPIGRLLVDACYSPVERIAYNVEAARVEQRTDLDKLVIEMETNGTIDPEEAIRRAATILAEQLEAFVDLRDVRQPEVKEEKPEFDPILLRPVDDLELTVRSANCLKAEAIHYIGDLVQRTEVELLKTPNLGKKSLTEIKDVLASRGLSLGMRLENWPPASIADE
UniProt P0A2E3: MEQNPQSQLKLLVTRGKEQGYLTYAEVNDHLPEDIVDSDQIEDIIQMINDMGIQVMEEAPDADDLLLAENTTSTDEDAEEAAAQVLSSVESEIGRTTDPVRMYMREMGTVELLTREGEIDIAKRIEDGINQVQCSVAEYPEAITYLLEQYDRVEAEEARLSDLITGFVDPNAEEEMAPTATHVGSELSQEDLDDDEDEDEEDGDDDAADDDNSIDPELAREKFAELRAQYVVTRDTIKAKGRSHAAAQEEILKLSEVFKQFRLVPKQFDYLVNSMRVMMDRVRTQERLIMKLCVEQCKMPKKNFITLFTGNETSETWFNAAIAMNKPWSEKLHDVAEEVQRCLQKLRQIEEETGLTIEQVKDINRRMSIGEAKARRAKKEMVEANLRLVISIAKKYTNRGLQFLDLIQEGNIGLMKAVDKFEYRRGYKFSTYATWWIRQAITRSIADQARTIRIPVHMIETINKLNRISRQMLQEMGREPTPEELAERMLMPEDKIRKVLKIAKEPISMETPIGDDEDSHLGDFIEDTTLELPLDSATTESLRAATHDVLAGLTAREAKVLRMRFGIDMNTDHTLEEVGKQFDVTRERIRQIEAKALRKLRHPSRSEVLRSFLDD

According to article PMC10761746 (Scientific Reports, 2024):

Molecular target: T1, MBP-InvF (InvF fused to the maltose-binding protein) (Salmonella enterica serovar Typhimurium) (UniProt P69343)
T1 sequence: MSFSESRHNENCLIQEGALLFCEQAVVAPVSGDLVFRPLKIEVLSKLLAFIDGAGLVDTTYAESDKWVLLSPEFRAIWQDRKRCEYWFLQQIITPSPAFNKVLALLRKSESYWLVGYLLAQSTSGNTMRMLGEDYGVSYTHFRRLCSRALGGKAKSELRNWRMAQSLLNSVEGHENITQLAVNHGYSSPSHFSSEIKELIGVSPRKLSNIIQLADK
Assay: affinity purification with mass spectrometry; only the target purified

For “DNA-directed RNA polymerase subunit beta (from UniProt P06173 1-1342)”, the binding was “binds”.

“DNA-directed RNA polymerase subunit beta’ (from UniProt P0A2R4 1-1407)” was tested, and the binding was “binds”.

For “ATP-dependent Clp protease ATP-binding subunit ClpA (from UniProt A0A0F6AZ85)”, the binding was “binds”.

“Protein disaggregation chaperon ClpB (from UniProt Q7CQ01 1-857)” was tested, and the binding was “binds”.

For “DNA-directed RNA polymerase subunit alpha (from UniProt P0A7Z7 1-329)”, the binding was “binds”.

For “RNA polymerase sigma factor RpoD (from UniProt P0A2E3 1-615)”, the binding was “binds”.

No constants are given. Whether binding was seen depends on the method and setting. In cells and extracts the contact can be indirect. Here binding means that the protein was enriched with, or labelled near, the bait; the list need not be complete. Tags and fused reporters may be left off the sequences shown.
